Data from the supplement of paper PMC10849652.
Some of the results follow.

Sequences of proteins named here, by UniProt entry; tags and fusion partners are left off. A change or cut given only in a name is not applied to a line headed by its entry.
UniProt Q03111: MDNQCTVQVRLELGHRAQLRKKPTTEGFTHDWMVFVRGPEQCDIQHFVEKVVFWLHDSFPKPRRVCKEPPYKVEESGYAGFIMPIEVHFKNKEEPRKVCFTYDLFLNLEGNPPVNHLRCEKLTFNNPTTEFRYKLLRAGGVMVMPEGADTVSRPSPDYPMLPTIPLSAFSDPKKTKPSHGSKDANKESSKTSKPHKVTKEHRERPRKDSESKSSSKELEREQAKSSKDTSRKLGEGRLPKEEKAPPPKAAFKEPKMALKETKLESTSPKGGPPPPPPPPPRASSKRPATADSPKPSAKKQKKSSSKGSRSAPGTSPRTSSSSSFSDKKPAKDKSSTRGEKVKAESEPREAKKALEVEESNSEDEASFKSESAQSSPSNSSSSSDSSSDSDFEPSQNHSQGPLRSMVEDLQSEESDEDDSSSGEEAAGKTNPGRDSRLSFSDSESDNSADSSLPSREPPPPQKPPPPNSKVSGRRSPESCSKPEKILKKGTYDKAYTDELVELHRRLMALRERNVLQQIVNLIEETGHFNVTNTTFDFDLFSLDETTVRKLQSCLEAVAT
UniProt P46013: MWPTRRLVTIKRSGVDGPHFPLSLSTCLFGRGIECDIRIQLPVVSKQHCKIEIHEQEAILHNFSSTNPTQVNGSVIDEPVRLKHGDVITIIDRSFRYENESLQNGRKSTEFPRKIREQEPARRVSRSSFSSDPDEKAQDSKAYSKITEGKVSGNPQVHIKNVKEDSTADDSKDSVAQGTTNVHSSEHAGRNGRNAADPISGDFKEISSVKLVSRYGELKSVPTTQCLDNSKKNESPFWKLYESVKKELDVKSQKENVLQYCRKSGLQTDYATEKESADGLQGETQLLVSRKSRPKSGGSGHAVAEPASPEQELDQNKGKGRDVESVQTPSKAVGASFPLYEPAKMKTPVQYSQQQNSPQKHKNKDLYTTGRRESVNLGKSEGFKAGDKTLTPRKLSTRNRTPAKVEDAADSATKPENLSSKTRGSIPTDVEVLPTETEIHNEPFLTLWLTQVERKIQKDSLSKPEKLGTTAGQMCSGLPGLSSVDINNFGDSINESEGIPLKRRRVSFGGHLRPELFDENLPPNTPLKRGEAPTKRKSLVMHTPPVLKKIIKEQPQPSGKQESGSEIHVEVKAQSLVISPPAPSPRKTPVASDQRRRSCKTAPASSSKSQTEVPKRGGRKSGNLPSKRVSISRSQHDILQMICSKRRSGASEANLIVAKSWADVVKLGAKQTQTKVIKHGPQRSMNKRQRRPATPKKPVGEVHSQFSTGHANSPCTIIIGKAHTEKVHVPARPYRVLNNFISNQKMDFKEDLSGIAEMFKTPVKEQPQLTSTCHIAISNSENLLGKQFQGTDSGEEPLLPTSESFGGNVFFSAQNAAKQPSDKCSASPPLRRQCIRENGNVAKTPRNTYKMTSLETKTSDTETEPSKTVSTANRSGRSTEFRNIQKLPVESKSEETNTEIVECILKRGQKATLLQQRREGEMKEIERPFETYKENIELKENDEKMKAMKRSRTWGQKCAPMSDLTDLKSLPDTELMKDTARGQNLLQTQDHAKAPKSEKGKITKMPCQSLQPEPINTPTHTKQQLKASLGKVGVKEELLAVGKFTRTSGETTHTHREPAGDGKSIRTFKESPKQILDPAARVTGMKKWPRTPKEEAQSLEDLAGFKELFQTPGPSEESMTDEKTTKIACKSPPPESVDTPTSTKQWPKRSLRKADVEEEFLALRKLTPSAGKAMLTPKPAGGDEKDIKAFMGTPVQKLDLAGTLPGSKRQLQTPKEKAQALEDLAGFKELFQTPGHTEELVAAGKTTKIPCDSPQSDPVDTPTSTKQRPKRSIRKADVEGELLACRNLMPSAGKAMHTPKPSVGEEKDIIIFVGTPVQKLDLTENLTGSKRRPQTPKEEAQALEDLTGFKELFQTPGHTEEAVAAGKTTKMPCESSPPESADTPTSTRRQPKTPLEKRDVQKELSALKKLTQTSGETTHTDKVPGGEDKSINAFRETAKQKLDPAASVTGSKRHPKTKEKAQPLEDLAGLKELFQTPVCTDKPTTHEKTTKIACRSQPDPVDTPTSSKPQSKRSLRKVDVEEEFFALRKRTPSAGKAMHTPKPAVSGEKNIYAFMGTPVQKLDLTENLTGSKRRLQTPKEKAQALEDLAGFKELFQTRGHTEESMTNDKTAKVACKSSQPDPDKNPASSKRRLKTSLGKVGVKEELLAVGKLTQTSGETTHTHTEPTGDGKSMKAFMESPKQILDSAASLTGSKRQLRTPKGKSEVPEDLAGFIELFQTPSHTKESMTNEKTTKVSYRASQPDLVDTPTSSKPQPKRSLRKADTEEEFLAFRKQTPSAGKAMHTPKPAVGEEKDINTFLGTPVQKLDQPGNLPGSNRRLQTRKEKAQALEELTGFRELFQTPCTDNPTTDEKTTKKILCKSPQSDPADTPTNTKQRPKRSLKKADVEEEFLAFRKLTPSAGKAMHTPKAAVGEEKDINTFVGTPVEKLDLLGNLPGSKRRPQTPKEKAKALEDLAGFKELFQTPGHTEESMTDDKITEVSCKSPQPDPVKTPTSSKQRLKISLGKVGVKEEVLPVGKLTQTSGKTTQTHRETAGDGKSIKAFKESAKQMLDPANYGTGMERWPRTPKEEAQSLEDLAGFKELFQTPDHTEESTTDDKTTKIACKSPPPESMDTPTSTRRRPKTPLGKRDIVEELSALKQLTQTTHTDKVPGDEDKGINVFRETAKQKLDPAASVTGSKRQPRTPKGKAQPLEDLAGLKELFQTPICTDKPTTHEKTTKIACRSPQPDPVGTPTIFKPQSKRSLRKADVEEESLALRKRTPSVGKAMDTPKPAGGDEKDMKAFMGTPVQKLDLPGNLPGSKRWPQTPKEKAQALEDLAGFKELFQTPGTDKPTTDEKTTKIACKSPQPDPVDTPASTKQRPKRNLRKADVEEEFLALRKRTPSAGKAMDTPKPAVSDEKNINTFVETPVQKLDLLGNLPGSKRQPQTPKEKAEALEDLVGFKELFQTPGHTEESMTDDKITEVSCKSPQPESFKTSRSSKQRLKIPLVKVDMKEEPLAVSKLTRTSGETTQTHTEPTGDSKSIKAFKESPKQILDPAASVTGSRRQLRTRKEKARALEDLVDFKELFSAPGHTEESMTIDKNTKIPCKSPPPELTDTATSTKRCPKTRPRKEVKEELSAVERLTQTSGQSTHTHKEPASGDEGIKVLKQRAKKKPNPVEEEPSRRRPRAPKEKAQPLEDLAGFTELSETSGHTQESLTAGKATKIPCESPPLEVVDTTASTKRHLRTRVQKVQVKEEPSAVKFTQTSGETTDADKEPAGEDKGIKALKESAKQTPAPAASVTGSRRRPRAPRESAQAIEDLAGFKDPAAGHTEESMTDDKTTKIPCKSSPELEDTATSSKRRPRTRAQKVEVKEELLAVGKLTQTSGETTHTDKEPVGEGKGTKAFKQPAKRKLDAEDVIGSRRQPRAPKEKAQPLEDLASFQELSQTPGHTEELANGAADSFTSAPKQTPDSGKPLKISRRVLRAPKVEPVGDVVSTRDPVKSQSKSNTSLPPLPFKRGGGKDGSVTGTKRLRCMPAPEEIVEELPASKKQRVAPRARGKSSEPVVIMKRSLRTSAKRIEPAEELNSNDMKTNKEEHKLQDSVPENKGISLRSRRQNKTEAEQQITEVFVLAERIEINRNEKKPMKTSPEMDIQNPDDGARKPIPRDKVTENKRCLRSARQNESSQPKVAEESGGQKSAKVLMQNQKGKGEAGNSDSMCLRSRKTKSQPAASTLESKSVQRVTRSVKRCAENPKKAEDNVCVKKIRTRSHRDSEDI
UniProt Q9H8M7: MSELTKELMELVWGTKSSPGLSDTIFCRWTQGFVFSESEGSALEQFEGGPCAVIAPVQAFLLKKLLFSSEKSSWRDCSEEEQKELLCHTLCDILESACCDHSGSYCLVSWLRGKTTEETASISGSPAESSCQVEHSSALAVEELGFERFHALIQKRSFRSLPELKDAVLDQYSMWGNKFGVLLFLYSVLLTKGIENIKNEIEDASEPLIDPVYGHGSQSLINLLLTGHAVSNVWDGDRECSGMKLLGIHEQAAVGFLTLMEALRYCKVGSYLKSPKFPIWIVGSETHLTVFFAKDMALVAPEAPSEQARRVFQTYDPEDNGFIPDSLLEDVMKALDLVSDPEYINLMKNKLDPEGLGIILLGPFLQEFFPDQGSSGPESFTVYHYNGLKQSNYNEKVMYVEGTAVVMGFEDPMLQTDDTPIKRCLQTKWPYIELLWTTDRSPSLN
UniProt O95822: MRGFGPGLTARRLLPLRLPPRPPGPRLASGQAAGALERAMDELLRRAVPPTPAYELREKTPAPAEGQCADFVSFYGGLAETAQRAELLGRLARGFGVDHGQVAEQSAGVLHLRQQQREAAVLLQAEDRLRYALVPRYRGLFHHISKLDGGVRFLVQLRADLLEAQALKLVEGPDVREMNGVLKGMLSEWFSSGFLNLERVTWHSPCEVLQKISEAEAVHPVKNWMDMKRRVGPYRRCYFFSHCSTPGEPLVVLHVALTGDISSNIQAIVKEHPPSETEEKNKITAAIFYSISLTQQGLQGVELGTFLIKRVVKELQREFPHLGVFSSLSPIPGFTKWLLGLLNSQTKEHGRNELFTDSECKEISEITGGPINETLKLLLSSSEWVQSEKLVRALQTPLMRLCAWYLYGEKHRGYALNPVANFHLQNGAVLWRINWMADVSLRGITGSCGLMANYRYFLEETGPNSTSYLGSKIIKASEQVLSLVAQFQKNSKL
UniProt Q9NXC5: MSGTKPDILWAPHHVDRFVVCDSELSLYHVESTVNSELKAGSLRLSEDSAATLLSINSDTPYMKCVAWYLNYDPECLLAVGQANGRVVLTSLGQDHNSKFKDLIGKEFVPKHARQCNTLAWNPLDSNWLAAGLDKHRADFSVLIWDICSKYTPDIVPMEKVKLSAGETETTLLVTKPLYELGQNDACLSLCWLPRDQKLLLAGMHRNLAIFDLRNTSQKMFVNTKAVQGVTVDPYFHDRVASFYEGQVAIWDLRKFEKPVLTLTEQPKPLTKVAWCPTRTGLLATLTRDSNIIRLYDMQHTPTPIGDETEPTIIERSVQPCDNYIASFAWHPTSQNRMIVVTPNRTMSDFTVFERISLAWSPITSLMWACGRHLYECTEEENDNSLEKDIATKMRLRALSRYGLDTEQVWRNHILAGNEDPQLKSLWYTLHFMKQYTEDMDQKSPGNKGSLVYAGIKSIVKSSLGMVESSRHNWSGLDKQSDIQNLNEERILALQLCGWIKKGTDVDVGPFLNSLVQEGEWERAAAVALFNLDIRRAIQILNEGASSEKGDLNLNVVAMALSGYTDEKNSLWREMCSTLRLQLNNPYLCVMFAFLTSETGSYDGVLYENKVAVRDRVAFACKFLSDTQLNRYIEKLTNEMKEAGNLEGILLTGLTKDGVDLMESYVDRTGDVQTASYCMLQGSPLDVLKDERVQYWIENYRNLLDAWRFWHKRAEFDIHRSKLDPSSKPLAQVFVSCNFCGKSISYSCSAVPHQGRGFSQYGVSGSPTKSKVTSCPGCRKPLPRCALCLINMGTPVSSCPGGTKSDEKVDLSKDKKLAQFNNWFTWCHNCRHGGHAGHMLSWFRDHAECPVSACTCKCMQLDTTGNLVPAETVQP
UniProt Q9UL63, whole entry, looked up: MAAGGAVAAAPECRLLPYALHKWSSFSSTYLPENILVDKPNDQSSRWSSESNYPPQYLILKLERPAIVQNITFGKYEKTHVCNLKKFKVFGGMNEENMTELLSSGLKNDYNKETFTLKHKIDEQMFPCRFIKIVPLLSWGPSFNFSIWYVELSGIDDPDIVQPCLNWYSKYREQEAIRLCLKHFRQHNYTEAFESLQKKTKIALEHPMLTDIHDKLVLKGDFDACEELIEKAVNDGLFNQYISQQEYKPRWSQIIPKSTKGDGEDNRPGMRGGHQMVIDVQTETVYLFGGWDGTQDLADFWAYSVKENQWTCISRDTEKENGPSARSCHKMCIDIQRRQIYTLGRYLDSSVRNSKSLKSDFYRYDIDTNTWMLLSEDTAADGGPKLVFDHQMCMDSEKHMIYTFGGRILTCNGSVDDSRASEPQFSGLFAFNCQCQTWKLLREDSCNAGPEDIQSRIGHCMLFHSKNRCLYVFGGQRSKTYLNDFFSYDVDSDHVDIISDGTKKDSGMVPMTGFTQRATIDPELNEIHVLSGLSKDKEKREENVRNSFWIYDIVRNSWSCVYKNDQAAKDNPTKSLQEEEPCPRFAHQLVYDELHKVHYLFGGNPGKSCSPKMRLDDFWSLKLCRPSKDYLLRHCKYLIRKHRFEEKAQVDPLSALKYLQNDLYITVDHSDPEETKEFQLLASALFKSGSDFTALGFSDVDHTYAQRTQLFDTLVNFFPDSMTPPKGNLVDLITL
UniProt Q13015: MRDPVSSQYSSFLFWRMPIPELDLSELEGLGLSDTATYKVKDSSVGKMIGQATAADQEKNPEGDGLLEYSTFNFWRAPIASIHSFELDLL

Legend:
Assay in all cases: log2 fold change, soluble protein after heating vs DMSO (PISA); higher = thermal stabilisation; K562 cells, 10 uM, 30 min; active = over 0.2 and 3.5 SD of the protein, either way, in both replicates (recomputed)
[1] = compound: CS(=O)(=O)c1ccc(-c2cnc(N)c(C(=O)Nc3ccccc3)n2)cc1
Method in brief: (§1)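 For each measurement, 10 μM compound was applied for 30 min to K562 cells at 2×10^6 cells/mL. Aliquots were heated for 3 min across 48°C-58°C, pooled, and extracted in PBS with 0.5% NP-40 at 4°C; the supernatant after 21,000xg for 90 min was soluble protein. This was quantified by TMTpro 16plex LC-MS/MS with channel sums equalised, and thermal stability was reported relative to control samples from duplicates, on a log2 fold-change scale.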

[2] = compound: C[C@@H](Oc1cc(-c2cnn(C3CCNCC3)c2)cnc1N)c1c(Cl)ccc(F)c1Cl [crizotinib]
Method in brief: as §1

[3] = compound: C[C@@H]1COCCN1C2=NC(=NC(=C2)C3(CC3)S(=O)(=O)C)C4=C5C=CNC5=CC=C4
Method in brief: as §1

[4] = compound: C[C@H](C1=CC=C(C=C1)C(=O)NC2=C3C=CNC3=NC=C2)N
Method in brief: as §1

[5] = compound: C[C@H](Nc1ncnc2nc[nH]c12)c1cc2cccc(Cl)c2c(=O)n1-c1ccccc1 [duvelisib]
Method in brief: as §1

[6] = compound: Cc1cc(Nc2cc(CN3CCOCC3)c3nc(C)c(Cc4ccc(Cl)cc4F)n3n2)n[nH]1 [gandotinib]
Method in brief: as §1

[7] = compound: Cc1cc(Nc2cc(N3CCN(C)CC3)nc(Sc3ccc(NC(=O)C4CC4)cc3)n2)n[nH]1 [tozasertib]
Method in brief: as §1

[8] = compound: Cc1cc(SCc2sc(-c3ccc(C(F)(F)F)cc3)nc2C)ccc1OCC(=O)O
Method in brief: as §1

[9] = compound: Cc1ccc(-n2nc(C(C)(C)C)cc2NC(=O)Nc2ccc(OCCN3CCOCC3)c3ccccc23)cc1 [doramapimod]
Method in brief: as §1

[10] = compound: Cc1ccc(C(=O)N(CCCN)[C@@H](c2nc3cc(Cl)ccc3c(=O)n2Cc2ccccc2)C(C)C)cc1 [ispinesib]
Method in brief: as §1

[11] = compound: Cc1ccc(NC(=O)c2ccc(CN3CC[C@H](N(C)C)C3)c(C(F)(F)F)c2)cc1Nc1nccc(-c2cncnc2)n1 [bafetinib]
Method in brief: as §1

[12] = compound: Cc1cccc(CC(=O)N2CCc3c2ccc(-c2cn(C)c4ncnc(N)c24)c3F)n1
Method in brief: as §1

[13] = compound: Cc1cn(-c2cc(NC(=O)c3ccc(C)c(Nc4nccc(-c5cccnc5)n4)c3)cc(C(F)(F)F)c2)cn1 [nilotinib]
Method in brief: as §1

[14] = compound: Cc1nc(Nc2n[nH]c3c2CN(C(=O)N[C@H](CN(C)C)c2ccccc2)C3(C)C)c2sccc2n1
Method in brief: as §1

[15] = compound: Cc1nc(Nc2ncc(C(=O)Nc3c(C)cccc3Cl)s2)cc(N2CCN(CCO)CC2)n1 [dasatinib]
Method in brief: as §1

[16] = compound: Cc1ncc(-c2ccnc(Nc3ccc(S(C)(=O)=O)cc3)n2)n1C(C)C
Method in brief: as §1

[17] = compound: Cn1cc(-c2ccc3c(c2)CCN3C(=O)Cc2cccc(C(F)(F)F)c2)c2c(N)ncnc21
Method in brief: as §1

[18] = compound: Cn1cc(-c2ccc3nnc(C(F)(F)c4ccc5ncccc5c4)n3n2)cn1
Method in brief: as §1

[19] = compound: Cn1cncc1[C@@](N)(c1ccc(Cl)cc1)c1ccc2c(c1)c(-c1cccc(Cl)c1)cc(=O)n2C [tipifarnib]
Method in brief: as §1

[20] = compound: FC(F)(F)c1ccc(/C=C/c2nc(COc3ccc(CCCCn4ccnn4)cc3)co2)cc1 [mubritinib]
Method in brief: as §1

Measured: log2 fold change

MRPL24 (UniProt Q96A35)
inactive: [1] 0.074 | [2] 0.011 | [3] -0.055 | [4] 0.327 | [5] -0.096 | [6] 0.213 | [7] -0.028 | [8] 0.132 | [9] 0.145 | [10] -0.093 | [11] 0.386 | [12] 0.039 | [13] -0.093 | [14] 0.151 | [15] -0.039 | [16] 0 | [17] -0.114 | [18] -0.044 | [19] 0.082 | [20] 0.069

MLLT1 (UniProt Q03111)
inactive: [1] -0.031 | [2] 0.051 | [3] -0.006 | [4] 0.082 | [5] 0.007 | [6] 0.151 | [7] -0.044 | [8] 0.043 | [9] 0.057 | [10] -0.219 | [11] -0.154 | [12] -0.043 | [13] -0.024 | [14] 0.038 | [15] -0.049 | [16] -0.091 | [17] -0.069 | [18] 0.099 | [19] -0.017 | [20] 0.009

MICALL2 (UniProt Q8IY33)
inactive: [1] 0.066 | [2] -0.045 | [3] 0.152 | [4] 0 | [5] 0.07 | [6] 0.082 | [7] -0.044 | [8] 0.194 | [9] 0.042 | [10] 0.048 | [11] -0.098 | [12] -0.028 | [13] -0.011 | [14] -0.058 | [15] -0.039 | [16] -0.158 | [17] 0.146 | [18] 0.059 | [19] 0.142 | [20] 0.166

MRPL55 isoform 2 (UniProt Q7Z7F7)
inactive: [1] 0.084 | [2] -0.097 | [3] 0.039 | [4] 0.285 | [5] -0.052 | [6] -0.023 | [7] -0.048 | [8] 0.215 | [9] 0.166 | [10] -0.063 | [11] 0.19 | [12] 0.131 | [13] -0.048 | [14] 0.094 | [15] -0.03 | [16] -0.036 | [17] -0.051 | [18] -0.094 | [19] 0.107 | [20] 0.07

MRPL19 (UniProt P49406)
inactive: [1] 0.05 | [2] 0.029 | [3] -0.05 | [4] 0.192 | [5] -0.096 | [6] 0.064 | [7] 0.036 | [8] 0.101 | [9] 0.087 | [10] -0.111 | [11] 0.187 | [12] 0.129 | [13] -0.111 | [14] 0.14 | [15] 0 | [16] 0.031 | [17] -0.197 | [18] -0.002 | [19] 0.076 | [20] 0.003

MRPL39 (UniProt Q9NYK5)
inactive: [1] 0.022 | [2] 0.046 | [3] -0.089 | [4] 0.248 | [5] -0.107 | [6] 0.141 | [7] 0.005 | [8] 0.056 | [9] 0.067 | [10] -0.02 | [11] 0.05 | [12] 0.084 | [13] -0.011 | [14] 0.12 | [15] -0.033 | [16] 0.01 | [17] -0.085 | [18] -0.019 | [19] 0.024 | [20] 0.029

MKI67 (UniProt P46013)
inactive: [1] -0.099 | [2] -0.097 | [3] -0.068 | [4] 0.263 | [5] -0.073 | [6] 0.091 | [7] -0.079 | [8] -0.021 | [9] 0.063 | [10] -0.163 | [11] -0.09 | [12] -0.125 | [13] -0.141 | [14] 0.023 | [15] 0.035 | [16] -0.016 | [17] -0.008 | [18] 0.094 | [19] 0.2 | [20] 0.051

MINDY3 (UniProt Q9H8M7)
inactive: [1] -0.02 | [2] 0.001 | [3] 0.083 | [4] 0.034 | [5] 0.034 | [6] -0.077 | [7] -0.067 | [8] 0 | [9] 0.026 | [10] 0.029 | [11] -0.028 | [12] -0.042 | [13] -0.019 | [14] -0.017 | [15] -0.137 | [16] -0.078 | [17] 0.037 | [18] 0.052 | [19] -0.044 | [20] 0.001

MRPL17 (UniProt Q9NRX2)
inactive: [1] 0.066 | [2] 0.009 | [3] 0.004 | [4] 0.227 | [5] -0.053 | [6] 0.012 | [7] -0.036 | [8] 0.086 | [9] 0.056 | [10] -0.156 | [11] 0.135 | [12] 0.094 | [13] -0.106 | [14] 0.104 | [15] -0.088 | [16] -0.095 | [17] -0.114 | [18] -0.049 | [19] 0.162 | [20] -0.024

MLYCD (UniProt O95822)
inactive: [1] -0.013 | [2] 0.054 | [3] -0.012 | [4] -0.06 | [5] 0.027 | [6] -0.031 | [7] 0.037 | [8] -0.068 | [9] -0.008 | [10] -0.052 | [11] 0.089 | [12] -0.201 | [13] -0.03 | [14] 0.013 | [15] -0.048 | [16] -0.049 | [17] 0.003 | [18] 0.08 | [19] 0.04 | [20] 0.005

MRPL27 (UniProt Q9P0M9)
inactive: [1] -0.026 | [2] -0.018 | [3] -0.146 | [4] 0.27 | [5] -0.192 | [6] 0.178 | [7] 0.011 | [8] 0.125 | [9] 0.153 | [10] -0.188 | [11] 0.216 | [12] 0.096 | [13] 0.06 | [14] 0.035 | [15] 0.027 | [16] -0.029 | [17] -0.252 | [18] -0.019 | [19] 0.215 | [20] -0.008

MRPL22 (UniProt Q9NWU5)
inactive: [1] 0.009 | [2] 0.091 | [3] -0.041 | [4] 0.211 | [5] -0.102 | [6] 0.065 | [7] 0.003 | [8] 0.11 | [9] 0.169 | [10] -0.167 | [11] 0.115 | [12] 0.054 | [13] 0.068 | [14] 0.175 | [15] 0.005 | [16] 0.005 | [17] -0.091 | [18] 0.016 | [19] 0.144 | [20] 0.062

Quoted at random: 2 entries already listed, in no set order.
MRPL22 (UniProt Q9NWU5)
inactive: [1] 0.009 | [2] 0.091 | [3] -0.041 | [4] 0.211 | [5] -0.102 | [6] 0.065 | [7] 0.003 | [8] 0.11 | [9] 0.169 | [10] -0.167 | [11] 0.115 | [12] 0.054 | [13] 0.068 | [14] 0.175 | [15] 0.005 | [16] 0.005 | [17] -0.091 | [18] 0.016 | [19] 0.144 | [20] 0.062

MRPL19 (UniProt P49406)
inactive: [1] 0.05 | [2] 0.029 | [3] -0.05 | [4] 0.192 | [5] -0.096 | [6] 0.064 | [7] 0.036 | [8] 0.101 | [9] 0.087 | [10] -0.111 | [11] 0.187 | [12] 0.129 | [13] -0.111 | [14] 0.14 | [15] 0 | [16] 0.031 | [17] -0.197 | [18] -0.002 | [19] 0.076 | [20] 0.003

Remaining list, next part:

MIOS (UniProt Q9NXC5)
inactive: [1] -0.019 | [2] 0.077 | [3] -0.123 | [4] -0.017 | [5] -0.019 | [6] -0.035 | [7] 0.072 | [8] -0.011 | [9] 0.058 | [10] 0.022 | [11] 0.067 | [12] -0.04 | [13] 0.015 | [14] 0.006 | [15] 0.061 | [16] -0.01 | [17] -0.073 | [18] -0.089 | [19] 0.007 | [20] 0.026

MKLN1 (UniProt Q9UL63)
inactive: [1] 0.013 | [2] 0.045 | [3] -0.045 | [4] 0.007 | [5] -0.044 | [6] -0.022 | [7] 0.075 | [8] 0 | [9] -0.014 | [10] 0.133 | [11] 0.029 | [12] 0.009 | [13] 0.007 | [14] 0.002 | [15] 0.001 | [16] -0.046 | [17] -0.066 | [18] -0.077 | [19] 0.058 | [20] 0.021

MLLT11 (UniProt Q13015)
inactive: [1] -0.149 | [2] -0.083 | [3] 0.307 | [4] -0.116 | [5] 0.294 | [6] 0.028 | [7] -0.091 | [8] -0.099 | [9] 0.009 | [10] -0.022 | [11] -0.01 | [12] -0.113 | [13] -0.067 | [14] 0.145 | [15] 0.016 | [16] -0.118 | [17] 0.173 | [18] 0.152 | [19] 0.263 | [20] -0.089

MRPL23 (UniProt Q16540)
inactive: [1] 0.064 | [2] 0.05 | [3] -0.064 | [4] 0.234 | [5] -0.177 | [6] 0.11 | [7] 0.041 | [8] 0.057 | [9] 0.088 | [10] -0.101 | [11] 0.19 | [12] -0.026 | [13] -0.12 | [14] 0.183 | [15] 0.041 | [16] -0.009 | [17] -0.164 | [18] -0.039 | [19] 0.202 | [20] 0.093
